Literature values as cited in patent US12394502B2, “Method for predicting HLA-binding peptides using protein structural features” (The General Hospital Corporation, priority 2019, dated 2025).
For at least one compound, name, drawing or mass did not settle the structure.

Tested on: Renal Cell Carcinoma Patients
Settings: daily dose of 50 mg/day

## CCN(CC)CCNC(=O)c1c(C)[nH]c(/C=C2\C(=O)Nc3ccc(F)cc32)c1C [Sunitinib, sunitinib]
  effect on type-1 immune suppression: reverse type-1 immune suppression
